PubChem BioAssay AID1259308 – NCATS | 2017
Assay: 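Candidate targets for better recombinant protein yield in mammalian cells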 (primary screen). Cell system: human HEK293 embryonic kidney cells stably expressing firefly luciferase (HEK-CMV-Luc2-Hygro). Knock-down reagent: single siRNA against human genes, 0.8 pmol siRNA per well. Duration: 72 h. Measurement: 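Reporter luminescence and viable-cell signal on separate replicate plates, given as percent of non-targeting control and median/MAD z-scores, plus per-cell luciferase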. Reading the numbers: total luciferase, z-score: higher = more reporter protein produced. Call rule: 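An siRNA counts as active if its total luciferase robust z-score exceeds 3; genes with two or more such siRNAs out of three were retested with fresh siRNAs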. Meaning of the calls: active = raised luciferase; inactive = no rise.
Shown is a random part of about 59,000 reagents tested. Of all reagents, about 1,510 (2.6%) got an active call. 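Calls use total luciferase alone and ignore viability, so some active siRNAs may act by altering cell number.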 Entries without a mark were called inactive. The numbers tell different reagents against one gene apart. Further read-outs or replicates are left out here.

For APOBEC3H #1, what does the deposit list?
total luciferase, z-score: 3.54 (active)

What did the screen give for APOBEC3H #2?
total luciferase, z-score: 3.57 (active)

With APOBEC3H #3, what was measured?
total luciferase, z-score: 0.355

For PCK2 #1, what was measured?
total luciferase, z-score: -1.91

What is on record for PCK2 #2?
total luciferase, z-score: -0.242

How did the screen score PCK2 #3?
total luciferase, z-score: 0.951

What is on record for OR8G5 #1?
total luciferase, z-score: 0.415

For OR8G5 #2, what was measured?
total luciferase, z-score: -0.935

With OR8G5 #3, how do the results read?
total luciferase, z-score: 0.00604

How did the screen score RPL22P11 #1?
total luciferase, z-score: -0.679

What did the screen give for RPL22P11 #2?
total luciferase, z-score: -0.645

For RPL22P11 #3, what was measured?
total luciferase, z-score: -0.716

Which result is listed for DMAC2 #1?
total luciferase, z-score: 0.331

With DMAC2 #2, how do the results read?
total luciferase, z-score: -0.469

What is on record for DMAC2 #3?
total luciferase, z-score: -0.164

How did the screen score DNAJB7 #1?
total luciferase, z-score: 1.35

Which result is listed for DNAJB7 #2?
total luciferase, z-score: 0.621

With DNAJB7 #3, what does the deposit list?
total luciferase, z-score: 0.0473

For SDK1 #1, what does the deposit list?
total luciferase, z-score: 0.5

What did the screen give for SDK1 #2?
total luciferase, z-score: 0.247

How did the screen score SDK1 #3?
total luciferase, z-score: -0.854

With DUSP10 #1, what was measured?
total luciferase, z-score: 0.85

For DUSP10 #2, what does the deposit list?
total luciferase, z-score: -0.844

What did the screen give for DUSP10 #3?
total luciferase, z-score: 0.107

With YEATS2 #1, what was measured?
total luciferase, z-score: 0.862

With YEATS2 #2, how do the results read?
total luciferase, z-score: -0.167

How did the screen score YEATS2 #3?
total luciferase, z-score: -0.565

Which result is listed for MAGED4B #1?
total luciferase, z-score: 1.64

For MAGED4B #2, what does the deposit list?
total luciferase, z-score: 0.233

How did the screen score MAGED4B #3?
total luciferase, z-score: -0.0103

Which result is listed for PCIF1 #1?
total luciferase, z-score: -0.875

With PCIF1 #2, how do the results read?
total luciferase, z-score: 1.9

For PCIF1 #3, how do the results read?
total luciferase, z-score: -0.244

As entered above:
Result for DMAC2 #2 under “total luciferase, z-score”: -0.469
DUSP10 #1, total luciferase, z-score: 0.85
